Laboratory results reported in publication PMC12146375.
Results are given in words; binding and its absence hold for the method and conditions named. In cells and extracts the contact can be indirect. Binding calls can cover weak binding; strength is not graded here. Sequences can lack the tags named with a protein.

Target: T1, VdAHA1-nLUC (Verticillium dahliae) (UniProt G2XIU4)
T1 sequence: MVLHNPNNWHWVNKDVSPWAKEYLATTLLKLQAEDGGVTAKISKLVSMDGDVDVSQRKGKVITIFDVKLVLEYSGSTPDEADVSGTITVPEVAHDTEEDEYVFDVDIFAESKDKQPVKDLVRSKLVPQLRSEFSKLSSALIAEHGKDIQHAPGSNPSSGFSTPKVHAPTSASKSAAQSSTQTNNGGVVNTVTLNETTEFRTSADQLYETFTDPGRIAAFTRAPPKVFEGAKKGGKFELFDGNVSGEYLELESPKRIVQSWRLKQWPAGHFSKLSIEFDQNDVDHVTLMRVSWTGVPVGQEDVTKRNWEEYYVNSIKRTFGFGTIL
Experiment: split reporter; luciferase complementation (LCI): VdAHA1-nLUC and VdHSP90-1-cLUC co-infiltrated by Agrobacterium AGL1 (1:1) into 4-week-old tobacco leaves, signal read with a cooled CCD after 48 h

VdHSP90-1-cLUC (Verticillium dahliae)
binding: binds
